From PubChem BioAssay AID248 (DTP/NCI, 2004)
The list does not hold the whole screen: it covers a few groups of compounds. Not every dose and run of a compound is shown. T/C: endpoint of the treated group in % of that of the vehicle group. Some entries give survivors of the animals treated and no T/C: the source holds a T/C of zero for them, seemingly a mark for toxic or unscored doses. Some doses without a T/C left all or most animals alive at the check, yet need not have been tolerated: the source hardly ever lists a survival T/C far under the control, and the zero likely stands for such cases as well. Counts of survivors are from the toxicity check (mostly the fifth day) where no day follows; animals may have died later. Schedules are NCI's codes, read here as Q, the interval in days (D) or hours (H), X, the number of doses. Some schedules carry Z or #; the key to these is not given. Where survival is the endpoint, the PubChem record calls one and a half times the control and up active, and a quarter to a half above the control has no call in these data; cut-offs in other NCI protocols can differ. Some T/C values carry the count of animals alive at the toxicity check (mostly the fifth day); without a count or a note in brackets, all were alive then. Some entries were tested several times; the results are listed from low to high. Counts like (3×) count equal records among those shown. Some T/C values are marked as having no survivor count here; that says nothing about deaths at the dose.

Test system: L1210 leukemia ip in BDF1 mice, survival T/C
Assay: NCI In Vivo Anticancer Drug Screen. Data for tumor model L1210 Leukemia (intraperitoneal) in B6D2F1 (BDF1) mice
Details: T/C endpoint: mean survival time, higher T/C = longer survival
[1] = dose: 100.0 mg/kg/injection, schedule: Q01DX001 (ip), vehicle: saline
[2] = dose: 100.0 mg/kg/injection, schedule: Q04DX003 (ip), vehicle: saline
[3] = dose: 200.0 mg/kg/injection, schedule: Q01DX001 (ip), vehicle: saline
[4] = dose: 200.0 mg/kg/injection, schedule: Q04DX003 (ip), vehicle: saline
[5] = dose: 400.0 mg/kg/injection, schedule: Q01DX001 (ip), vehicle: saline
[6] = dose: 400.0 mg/kg/injection, schedule: Q04DX003 (ip), vehicle: saline
[7] = dose: 300.0 mg/kg/injection, schedule: Q01DX001 (ip), vehicle: saline

With `CCOP(=O)(NC(=S)NN1CCOCC1)OCC` the T/C [1] was 98 % of control, the T/C (dose: 100.0 mg/kg/injection, schedule: Q01DX009 (ip), vehicle: saline) was 100 and 108 % of control and the T/C (dose: 100.0 mg/kg/injection, schedule: Q04DX002 (ip), vehicle: saline) was 105 % of control. The T/C [2] was 96 % of control, the T/C [3] was 92 % of control and the T/C (dose: 200.0 mg/kg/injection, schedule: Q01DX009 (ip), vehicle: saline) was 97 and 100 % of control. The T/C (dose: 200.0 mg/kg/injection, schedule: Q04DX002 (ip), vehicle: saline) was 94 % of control, the T/C [4] was 102 % of control and the T/C [5] was 92 % of control. The T/C (dose: 400.0 mg/kg/injection, schedule: Q01DX009 (ip), vehicle: saline) was 91 and 94 % of control, the T/C (dose: 400.0 mg/kg/injection, schedule: Q04DX002 (ip), vehicle: saline) was 102 % of control and the T/C [6] was 98 % of control.

In the case of `CN/C(N)=N/[N+](=O)[O-]`, the T/C (dose: 75.0 mg/kg/injection, schedule: Q01DX001 (ip), vehicle: Klucel (hydroxypropylcellulose) (HPC)) is reported as 92 % of control [survivor count not shown], the T/C (dose: 150.0 mg/kg/injection, schedule: Q01DX001 (ip), vehicle: Klucel (hydroxypropylcellulose) (HPC)) is reported as 100 % of control [survivor count not shown] and the T/C (dose: 300.0 mg/kg/injection, schedule: Q01DX001 (ip), vehicle: Klucel (hydroxypropylcellulose) (HPC)) is reported as 100 % of control [survivor count not shown].

`O=[N+]([O-])c1cc([N+](=O)[O-])c2nsnc2c1` was tested, and the T/C (dose: 100.0 mg/kg/injection, schedule: Q04DX003 (ip), vehicle: Klucel (hydroxypropylcellulose) (HPC)) was 100 % of control, the T/C (dose: 200.0 mg/kg/injection, schedule: Q04DX003 (ip), vehicle: Klucel (hydroxypropylcellulose) (HPC)) was 90 % of control [5 of 6 alive] and the survivor count (dose: 400.0 mg/kg/injection, schedule: Q04DX003 (ip), vehicle: Klucel (hydroxypropylcellulose) (HPC)) was 0 of 6.

With `Cc1cc([N+](=O)[O-])cc([N+](=O)[O-])c1O` the T/C (dose: 25.0 mg/kg/injection, schedule: Q01DX009 (ip), vehicle: other) was 90 % of control, the survivor count (dose: 50.0 mg/kg/injection, schedule: Q01DX009 (ip), vehicle: other) was 5 of 6 and the survivor count (dose: 50.0 mg/kg/injection, schedule: Q04DX003 (ip), vehicle: saline with Tween-80) was 0 of 6. The T/C (dose: 100.0 mg/kg/injection, schedule: Q01DX009 (ip), vehicle: other) was 95 % of control [4 of 6 alive], the survivor count (dose: 100.0 mg/kg/injection, schedule: Q04DX003 (ip), vehicle: saline with Tween-80) was 0 of 6 and the survivor count (dose: 200.0 mg/kg/injection, schedule: Q04DX003 (ip), vehicle: saline with Tween-80) was 0 of 6.

For `COC(=O)C(Cl)CSC(=N)N` (configuration not stated), the T/C (dose: 75.0 mg/kg/injection, schedule: Q01DX001 (ip), vehicle: saline) was 97 % of control, the T/C (dose: 150.0 mg/kg/injection, schedule: Q01DX001 (ip), vehicle: saline) was 103 % of control and the survivor count [7] was 1 of 6.

With `CC(Sc1ccccc1[N+](=O)[O-])([N+](=O)[O-])[N+](=O)[O-]` the T/C [1] was 98 % of control, the T/C [3] was 101 % of control and the T/C [5] was 100 % of control [5 of 6 alive].

In the case of `O=[N+]([O-])c1ccc(-n2ncc([N+](=O)[O-])n2)c([N+](=O)[O-])c1`, the T/C (dose: 75.0 mg/kg/injection, schedule: Q01DX001 (ip), vehicle: other) is reported as 107 % of control [survivor count not shown] and the T/C (dose: 150.0 mg/kg/injection, schedule: Q01DX001 (ip), vehicle: other) is reported as 105 % of control [survivor count not shown].

`CP(=S)(Nc1ccccc1)Nc1ccccc1` was tested, and the T/C (dose: 100.0 mg/kg/injection, schedule: Q04DX002 (ip), vehicle: gum acacia) was 108 % of control [survivor count not shown], the T/C (dose: 200.0 mg/kg/injection, schedule: Q04DX002 (ip), vehicle: gum acacia) was 105 % of control [survivor count not shown] and the T/C (dose: 400.0 mg/kg/injection, schedule: Q04DX002 (ip), vehicle: gum acacia) was 111 % of control [survivor count not shown].

In the case of `CC1CN1P(=O)(Nc1ncccn1)N1CC1C` (configuration not stated), the T/C (dose: 14.0 mg/kg/injection, schedule: Q01DX015 (ip), vehicle: saline) is reported as 109 and 121 % of control, the T/C (dose: 20.0 mg/kg/injection, schedule: Q01DX015 (ip), vehicle: saline) is reported as 109 % of control and the T/C (dose: 24.0 mg/kg/injection, schedule: Q01DX015 (ip), vehicle: saline) is reported as 127 % of control. For the same molecule, the T/C (dose: 30.0 mg/kg/injection, schedule: Q01DX015 (ip), vehicle: saline) was 120 % of control, the T/C (dose: 40.0 mg/kg/injection, schedule: Q01DX015 (ip), vehicle: saline) was 150 % of control and the T/C (dose: 44.0 mg/kg/injection, schedule: Q01DX015 (ip), vehicle: saline) was 137 % of control. The T/C (dose: 50.0 mg/kg/injection, schedule: Q01DX001 (ip), vehicle: saline) was 107, 117, 128 % of control, the T/C (dose: 66.0 mg/kg/injection, schedule: Q01DX015 (ip), vehicle: saline) was 129 % of control and the T/C (dose: 67.0 mg/kg/injection, schedule: Q01DX015 (ip), vehicle: saline) was 132 and 188 % of control. The T/C (dose: 89.0 mg/kg/injection, schedule: Q01DX001 (ip), vehicle: saline) was 146 % of control, the T/C (dose: 99.0 mg/kg/injection, schedule: Q01DX015 (ip), vehicle: saline) was 101 % of control and the T/C [1] was 107, 132, 134 % of control. The T/C (dose: 100.0 mg/kg/injection, schedule: Q01DX015 (ip), vehicle: saline) was 103 % of control, the T/C (dose: 133.0 mg/kg/injection, schedule: Q01DX001 (ip), vehicle: saline) was 152 % of control and the T/C (dose: 150.0 mg/kg/injection, schedule: Q01DX015 (ip), vehicle: saline) was 95 % of control. The T/C [3] was 102, 117, 150 % of control (2×), the survivor count (dose: 225.0 mg/kg/injection, schedule: Q01DX015 (ip), vehicle: saline) was 6 of 6 and the T/C [7] was 107 and 147 % of control [5 of 6 alive]. The survivor count [7] was 3 of 6, the T/C [5] was 117 and 121 % of control and the survivor count [5] was 2 of 6.

For `O=P(Cl)(Nc1ccccc1)Nc1ccccc1`, the T/C (dose: 100.0 mg/kg/injection, schedule: Q04DX003 (ip), vehicle: saline with Tween-80, evaluated on day 20) was 101 % of control, the T/C (dose: 100.0 mg/kg/injection, schedule: Q04DX003 (ip), vehicle: saline with Tween-80, evaluated on day 30) was 92 % of control and the T/C (dose: 200.0 mg/kg/injection, schedule: Q04DX003 (ip), vehicle: saline with Tween-80, evaluated on day 20) was 103 % of control. The T/C (dose: 200.0 mg/kg/injection, schedule: Q04DX003 (ip), vehicle: saline with Tween-80, evaluated on day 30) was 101 % of control, the T/C (dose: 400.0 mg/kg/injection, schedule: Q04DX003 (ip), vehicle: saline with Tween-80, evaluated on day 20) was 101 % of control and the T/C (dose: 400.0 mg/kg/injection, schedule: Q04DX003 (ip), vehicle: saline with Tween-80, evaluated on day 30) was 97 % of control.

For `COC(=O)/C=C/N(CCF)CCCl`, the survivor count (dose: 10.0 mg/kg/injection, schedule: Q01DX Z (ip), vehicle: other) was 2 of 6, the survivor count (dose: 30.0 mg/kg/injection, schedule: Q01DX Z (ip), vehicle: other) was 0 of 6 and the survivor count (dose: 100.0 mg/kg/injection, schedule: Q01DX Z (ip), vehicle: other) was 0 of 6. The survivor count (dose: 300.0 mg/kg/injection, schedule: Q01DX Z (ip), vehicle: other) was 0 of 6.

In the case of `CCC(Sc1ccccc1[N+](=O)[O-])([N+](=O)[O-])[N+](=O)[O-]`, the T/C (dose: 100.0 mg/kg/injection, schedule: Q01DX009 (ip), vehicle: acetone) is reported as 96 % of control, the T/C [2] is reported as 91 % of control and the T/C (dose: 200.0 mg/kg/injection, schedule: Q01DX009 (ip), vehicle: acetone) is reported as 91 % of control. The T/C [4] was 93 % of control [5 of 6 alive], the survivor count (dose: 400.0 mg/kg/injection, schedule: Q01DX009 (ip), vehicle: acetone) was 6 of 6 and the T/C [6] was 95 % of control [5 of 6 alive].
